Test results published in patent publication US7259278B2, “Anti-S-phase tubulin ligands” (Cytoskeleton Inc., priority 2000, dated 2007).
Some of these results come from one statement about several compounds together.

What was measured:
[1] = tested on: CEM cells; experiment: DNA synthesis measurement (3H-thymidine uptake); assay type: cell-based; settings: ID90, only after M-phase arrest
[2] = tested on: CEM cells; experiment: Immunofluorescence staining of microtubule structure and apoptotic DNA analysis; assay type: cell-based; settings: ID90 concentration
Protocol: FIG. 5. Interferences with the formation of microtubule structure in IAABE treated CEM cells. […] Insert is DNA extracted from the same samples run on 1% agarose gels and stained with ethidium bromide. Note absence of microtubule structure and appearance of apoptotic nuclei in IAABE treated cells. Note strong signal of apoptotic DNA ladder in IAABE treated cells compared to vinblastine and paclitaxel samples.
Immunofluorescence staining of microtubule structure. CEM cells incubated in the presence or absence of IAABE were collected and centrifuged in a Cytospin centrifuge at 700 xg for 5 min. The slides were air dried and fixed with methanol at −20° C. for 20 min. The slides were incubated in PBS containing 1% BSA at 37° C. for 30 min. After washing with PBS for 3 min, cells on the slides were covered with 30 ul of antihuman beta-tubulin monoclonal antibody (4 ug/ml; Accurate Antibody, Westbury, N.Y.) and placed in a humid chamber at 24° C. for 60 min. The slides were washed with PBS three times for 3 min each, followed by staining with 10 ul of FTTC-labeled goat anti-mouse antibody (Coulter, Hialeah, Fla.) in a humid chamber at 24° C. for 60 min. After washing in PBS, the stained cells were visualized under a fluorescence microscope (model MC63, Zeiss, Jena, Germany).
Apoptotic DNA analysis. […]

SMILES | time to significant inhibition of DNA synthesis [1] | time to DNA fragmentation / apoptotic DNA [2] [h]
NC(=O)NC(=O)c1cccc(NC(=O)CBr)c1 [BAABU, 3-bromoacetylamino benzoylurea] | greater than 12 h | 
CC(=O)O[C@H]1C(=O)[C@@]2(C)[C@H]([C@H](OC(=O)c3ccccc3)[C@]3(O)C[C@H](OC(=O)[C@H](O)[C@@H](NC(=O)c4ccccc4)c4ccccc4)C(C)=C1C3(C)C)[C@]1(OC(C)=O)CO[C@@H]1C[C@@H]2O [paclitaxel] |  | > 12
CC[C@]1(O)C[C@@H]2CN(CCc3c([nH]c4ccccc34)[C@@](C(=O)OC)(c3cc4c(cc3OC)N(C)[C@H]3[C@@](O)(C(=O)OC)[C@H](OC(C)=O)[C@]5(CC)C=CCN6CC[C@]43[C@@H]65)C2)C1 [vinblastine] | greater than 12 h | > 12
